# Data: PMC3459738
# By UniProt entry, the sequences of proteins in these tests, tags left out.
# UniProt Q99873: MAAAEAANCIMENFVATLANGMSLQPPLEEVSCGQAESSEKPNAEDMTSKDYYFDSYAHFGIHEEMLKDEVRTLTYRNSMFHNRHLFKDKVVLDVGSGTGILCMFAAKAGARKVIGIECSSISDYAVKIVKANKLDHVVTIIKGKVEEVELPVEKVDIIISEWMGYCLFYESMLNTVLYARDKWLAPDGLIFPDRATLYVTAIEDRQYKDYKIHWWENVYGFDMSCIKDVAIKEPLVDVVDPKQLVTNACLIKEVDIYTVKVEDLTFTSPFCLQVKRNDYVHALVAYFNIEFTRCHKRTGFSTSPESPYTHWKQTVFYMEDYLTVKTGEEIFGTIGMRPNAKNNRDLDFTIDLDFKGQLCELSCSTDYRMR
# UniProt Q07955: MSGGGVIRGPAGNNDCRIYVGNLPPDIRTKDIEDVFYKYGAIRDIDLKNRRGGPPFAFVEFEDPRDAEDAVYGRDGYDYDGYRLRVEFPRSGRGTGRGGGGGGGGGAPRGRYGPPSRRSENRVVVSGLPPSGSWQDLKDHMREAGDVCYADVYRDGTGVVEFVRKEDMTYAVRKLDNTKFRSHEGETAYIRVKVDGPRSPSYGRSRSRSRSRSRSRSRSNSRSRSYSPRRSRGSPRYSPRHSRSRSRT
# No constants are given. Whether binding was seen depends on the method and setting. Binding seen in cells or lysates may run through a third protein. Some results given as binding are weak or reduced against the parent protein; the word gives no strength.
# Key:
# [1] = molecular target: protein arginine methyltransferase 1 (human (endogenous in Nalm-6)) (UniProt Q99873); test: co-IP; endogenous proteins in Nalm-6 whole cell lysate (RIPA buffer, 1.0 % NP40, 100 mM NaCl); 1.0 ug anti-SRSF1 or anti-PRMT1 antibody with 1.0 mg lysate overnight at 4 °C, Protein G-Plus beads; washes with 150 mM NaCl, 1.0 % NP40; western blot; IgG as negative control; reciprocal
# [2] = molecular target: Serine/arginine-rich splicing factor 1 (human (endogenous in Nalm-6)) (UniProt Q07955); test: as above
binding [1],binding [2],Substance
binds,,Serine/arginine-rich splicing factor 1 (from UniProt Q07955 1-248)
,binds,protein arginine methyltransferase 1 (from UniProt Q99873 1-371) (enzyme)
